Publication PMC7971226
No constants are given. Whether binding was seen depends on the method and setting. Binding seen in cells or lysates may run through a third protein. Some binding calls cover weakened binding; strength is not graded here.

Chains of the proteins cited; added tags and fusions are not shown.
UniProt P05556: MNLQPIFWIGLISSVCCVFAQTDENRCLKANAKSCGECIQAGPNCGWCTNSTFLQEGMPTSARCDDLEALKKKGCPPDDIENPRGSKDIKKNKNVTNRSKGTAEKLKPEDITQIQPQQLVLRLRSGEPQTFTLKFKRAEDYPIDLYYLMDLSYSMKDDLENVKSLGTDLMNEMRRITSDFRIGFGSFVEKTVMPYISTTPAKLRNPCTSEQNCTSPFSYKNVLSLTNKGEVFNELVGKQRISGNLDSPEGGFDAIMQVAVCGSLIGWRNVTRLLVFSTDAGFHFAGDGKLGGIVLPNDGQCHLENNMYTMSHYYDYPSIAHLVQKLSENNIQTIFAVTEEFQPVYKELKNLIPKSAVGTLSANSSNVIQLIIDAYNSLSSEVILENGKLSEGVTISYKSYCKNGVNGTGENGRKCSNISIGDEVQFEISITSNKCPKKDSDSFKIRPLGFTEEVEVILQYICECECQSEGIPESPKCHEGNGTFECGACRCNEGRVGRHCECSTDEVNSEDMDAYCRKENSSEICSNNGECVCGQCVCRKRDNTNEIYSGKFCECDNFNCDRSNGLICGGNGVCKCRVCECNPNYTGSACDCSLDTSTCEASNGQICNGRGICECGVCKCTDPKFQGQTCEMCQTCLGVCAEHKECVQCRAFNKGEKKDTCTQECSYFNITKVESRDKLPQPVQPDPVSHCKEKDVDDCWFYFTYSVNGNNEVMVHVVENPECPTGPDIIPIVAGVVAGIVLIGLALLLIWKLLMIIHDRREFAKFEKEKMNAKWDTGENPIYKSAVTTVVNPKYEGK
UniProt Q05397: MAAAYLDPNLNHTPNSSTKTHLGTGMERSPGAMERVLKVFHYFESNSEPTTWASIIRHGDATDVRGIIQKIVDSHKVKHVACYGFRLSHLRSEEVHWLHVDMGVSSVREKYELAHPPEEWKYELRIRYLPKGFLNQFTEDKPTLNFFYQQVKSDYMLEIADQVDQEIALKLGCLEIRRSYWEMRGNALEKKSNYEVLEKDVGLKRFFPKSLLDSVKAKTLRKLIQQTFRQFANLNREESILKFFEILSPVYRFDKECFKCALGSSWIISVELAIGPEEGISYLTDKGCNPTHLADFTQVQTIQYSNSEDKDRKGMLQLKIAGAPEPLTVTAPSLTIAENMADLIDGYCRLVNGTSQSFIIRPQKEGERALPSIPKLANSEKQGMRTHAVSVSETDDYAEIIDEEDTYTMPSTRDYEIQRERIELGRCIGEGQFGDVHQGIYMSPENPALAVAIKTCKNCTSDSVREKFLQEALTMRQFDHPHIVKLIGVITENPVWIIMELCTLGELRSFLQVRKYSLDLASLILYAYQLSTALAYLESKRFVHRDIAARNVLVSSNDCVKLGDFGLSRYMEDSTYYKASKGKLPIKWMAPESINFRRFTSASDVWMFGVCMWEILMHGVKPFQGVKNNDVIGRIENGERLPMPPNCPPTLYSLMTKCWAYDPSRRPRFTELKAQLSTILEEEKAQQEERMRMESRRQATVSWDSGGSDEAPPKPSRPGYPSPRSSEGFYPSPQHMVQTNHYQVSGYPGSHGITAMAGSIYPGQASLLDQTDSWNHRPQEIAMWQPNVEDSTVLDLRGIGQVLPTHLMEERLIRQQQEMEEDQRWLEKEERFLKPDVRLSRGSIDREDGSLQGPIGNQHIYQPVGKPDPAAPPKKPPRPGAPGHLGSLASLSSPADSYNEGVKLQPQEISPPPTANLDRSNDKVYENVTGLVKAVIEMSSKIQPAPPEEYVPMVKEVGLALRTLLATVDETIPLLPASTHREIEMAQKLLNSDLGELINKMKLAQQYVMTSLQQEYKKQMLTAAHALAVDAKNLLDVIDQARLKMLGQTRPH

Key:
[1] = target: integrin β1 (human (endogenous in SK-N-SH)) (UniProt P05556); test: co-IP; endogenous proteins of SK-N-SH cells; cells incubated 1 h with rhNTN1 in serum-free DMEM (25 ng/ml for NEO1-FAK; 200 ng/ml in the methods, 100 ng/ml in the results, for NEO1-integrin β1; treatment not told for FAK-integrin β1); extracts in 20 mM Tris pH 7.4, 150 mM NaCl, 1% NP-40; anti-FAK, anti-NEO1 or anti-integrin β1 on Dynabeads protein A, 1 h; Western blot
[2] = target: Focal Adhesion Kinase (human (endogenous in SK-N-SH)) (UniProt Q05397); test: as above

B1: Neogenin-1 (receptor, UniProt Q92859 34-1461)
chain: ARSGSAPQSPGASIRTFTPFYFLVEPVDTLSVRGSSVILNCSAYSEPSPKIEWKKDGTFLNLVSDDRRQLLPDGSLFISNVVHSKHNKPDEGYYQCVATVESLGTIISRTAKLIVAGLPRFTSQPEPSSVYAGNNAILNCEVNADLVPFVRWEQNRQPLLLDDRVIKLPSGMLVISNATEGDGGLYRCVVESGGPPKYSDEVELKVLPDPEVISDLVFLKQPSPLVRVIGQDVVLPCVASGLPTPTIKWMKNEEALDTESSERLVLLAGGSLEISDVTEDDAGTYFCIADNGNETIEAQAELTVQAQPEFLKQPTNIYAHESMDIVFECEVTGKPTPTVKWVKNGDMVIPSDYFKIVKEHNLQVLGLVKSDEGFYQCIAENDVGNAQAGAQLIILEHAPATTGPLPSAPRDVVASLVSTRFIKLTWRTPASDPHGDNLTYSVFYTKEGIARERVENTSHPGEMQVTIQNLMPATVYIFRVMAQNKHGSGESSAPLRVETQPEVQLPGPAPNLRAYAASPTSITVTWETPVSGNGEIQNYKLYYMEKGTDKEQDVDVSSHSYTINGLKKYTEYSFRVVAYNKHGPGVSTPDVAVRTLSDVPSAAPQNLSLEVRNSKSIMIHWQPPAPATQNGQITGYKIRYRKASRKSDVTETLVSGTQLSQLIEGLDRGTEYNFRVAALTINGTGPATDWLSAETFESDLDETRVPEVPSSLHVRPLVTSIVVSWTPPENQNIVVRGYAIGYGIGSPHAQTIKVDYKQRYYTIENLDPSSHYVITLKAFNNVGEGIPLYESAVTRPHTDTSEVDLFVINAPYTPVPDPTPMMPPVGVQASILSHDTIRITWADNSLPKHQKITDSRYYTVRWKTNIPANTKYKNANATTLSYLVTGLKPNTLYEFSVMVTKGRRSSTWSMTAHGTTFELVPTSPPKDVTVVSKEGKPKTIIVNWQPPSEANGKITGYIIYYSTDVNAEIHDWVIEPVVGNRLTHQIQELTLDTPYYFKIQARNSKGMGPMSEAVQFRTPKADSSDKMPNDQASGSGGKGSRLPDLGSDYKPPMSGSNSPHGSPTSPLDSNMLLVIIVSVGVITIVVVVIIAVFCTRRTTSHQKKKRAACKSVNGSHKYKGNSKDVKPPDLWIHHERLELKPIDKSPDPNPIMTDTPIPRNSQDITPVDNSMDSNIHQRRNSYRGHESEDSMSTLAGRRGMRPKMMMPFDSQPPQPVISAHPIHSLDNPHHHFHSSSLASPARSHLYHPGSPWPIGTSMSLSDRANSTESVRNTPSTDTMPASSSQTCCTDHQDPEGATSSSYLASSQEEDSGQSLPTAHVRPSHPLKSFAVPAIPPPGPPTYDPALPSTPLLSQQALNHHIHSVKTASIGTLGRSRPPMPVVVPSAPEVQETTRMLEDSESSYEPDELTKEMAHLEGLMKDLNAITTA
[1]
  binding: binds
[2]
  binding: binds
